This passage reports binding results from patent US20090233858A1.

Amino acid sequences for entries named in this document (tags omitted). A change or cut given only in a name is not applied to a line headed by its entry.
UniProt P30153: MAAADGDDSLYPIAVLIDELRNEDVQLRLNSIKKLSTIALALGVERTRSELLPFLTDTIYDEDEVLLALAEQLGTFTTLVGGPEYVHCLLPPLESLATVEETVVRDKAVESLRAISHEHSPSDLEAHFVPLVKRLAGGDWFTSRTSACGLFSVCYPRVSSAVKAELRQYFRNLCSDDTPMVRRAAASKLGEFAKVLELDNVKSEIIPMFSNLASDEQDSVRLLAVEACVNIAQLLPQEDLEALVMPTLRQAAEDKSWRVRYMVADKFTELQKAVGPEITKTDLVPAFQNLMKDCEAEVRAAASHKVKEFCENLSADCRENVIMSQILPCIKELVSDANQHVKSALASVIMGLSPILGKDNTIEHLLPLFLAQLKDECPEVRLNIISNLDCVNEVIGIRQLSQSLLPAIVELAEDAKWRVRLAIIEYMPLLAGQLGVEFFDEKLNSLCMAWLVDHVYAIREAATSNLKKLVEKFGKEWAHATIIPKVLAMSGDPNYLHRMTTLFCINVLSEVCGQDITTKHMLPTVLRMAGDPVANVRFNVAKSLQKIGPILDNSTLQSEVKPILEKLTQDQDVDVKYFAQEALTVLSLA

This assay concerns the target heterotrimeric PP2A holoenzyme involving the Bα subunit (human) (UniProt P30153). Put plainly: native PAGE and gel filtration. (Size exclusion chromatography separates by hydrodynamic size, large species first.)

Results are given in words; binding and its absence hold for the method and conditions named. Some results given as binding are weak or reduced against the parent protein; the word gives no strength.

B1: Tau fragment (residues 265-328) (peptide)
peptide: GSLGNIHHKPGGGQVEVKSEKLDFKDRVQSKIGSLDNITHVPGGGNKKIETHKLTFRENAKAKT
On to B1, for which the binding entry was “binds”.
